Results taken from paper doi:10.1101/2022.06.06.494580.
These are yes or no findings as the source states them, for the method shown. Some results given as binding are weak or reduced against the parent protein; the word gives no strength. Where a sequence is shown, tags or fusion partners need not be part of it.

Biological target: CNOT7, yeast two-hybrid fusion (human), Q9UIV1
Test: two-hybrid
Conditions: remark: other sources report otherwise

B1: BTG1, yeast two-hybrid fusion, P62324 1-171 (protein)
chain: MHPFYTRAATMIGEIAAAVSFISKFLRTKGLTSERQLQTFSQSLQELLAEHYKHHWFPEKPCKGSGYRCIRINHKMDPLIGQAAQRIGLSSQELFRLLPSELTLWVDPYEVSYRIGEDGSICVLYEASPAGGSTQNSTNVQMVDSRISCKEELLLGRTSPSKNYNMMTVSG
B1 was tested, and the binding was “binds”.
